Among all 320,000 compounds or so, about 22,000 (6.9%) were called active. Inconclusive means that the source gave no clear call. Such entries were picked first, then a sample of the others. Calls come from the whole dose curve; as a rule, active = well fitted inhibition curve with a large enough effect; inconclusive = small, poorly fitted or top-dose-only effect, or another doubt; inactive = no such curve, though single readings can be large or run the other way. A potency beside an inconclusive call is a rough fit, not a confirmed value.
Assay: Primary qHTS for delayed death inhibitors of the malarial parasite plastid, 96 hour incubation
Details: P. falciparum luciferase reporter growth; series mostly up to 28.7 µM; activity change, negative = inhibition: at the top concentration
Summary of the method: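 Infected RBCs, 2% Hct / 0.05% parasitemia final; luciferase-reporter P. falciparum; cpd 96 h, 37 C, 5% CO2; luciferase detection reagent; luminescence.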
% is set by controls: 0 for no effect and ±100 for the full control effect; potency is the fitted concentration of half-maximal effect.

SMILES	Potency	activity change, negative = inhibition
COc1ccc(C(=O)O)cc1S(=O)(=O)Nc1cc(Cl)ccc1N1CCOCC1	inconclusive: 18.5 µM [inhibitor, single point]	
COc1ccc(CCNC(=O)CCSCc2ccccc2F)cc1OC		inactive: 0.0116%
COc1ccc(CCNC(=O)c2ccccc2)cc1	inconclusive: 6.57 µM [inhibitor, partial curve, poor fit]	
CCCCCc1ccc(-c2cn(CCc3c[nH]c4ccccc34)nn2)cc1	inconclusive: 18.5 µM [inhibitor, single point]	
CN(C)S(=O)(=O)N1CCC(Oc2ccc(C(=O)NC3CCCCC3)cc2)CC1	active: 13.1 µM	
CN(C)S(=O)(=O)c1ccc(NC(=O)CN2CCN(C(c3ccccc3)c3ccccc3)CC2)cc1	inconclusive: 13.1 µM [inhibitor, single point]	
O=C(CN(C(=O)C1CSC(=O)C1)c1cccc(F)c1)NCc1ccc2c(c1)OCO2 (stereo not drawn)	inconclusive: 13.1 µM [inhibitor, partial curve, poor fit]	
CCc1ccccc1NC(=O)CNC(=O)CSC(=S)N1CCCC1	inconclusive: 13.1 µM [inhibitor, single point]	
CCC(=O)c1ccc(OCC(=O)OCC(=O)Nc2ccc(C)c(S(=O)(=O)N3CCCCC3)c2)cc1	inconclusive: 8.28 µM [inhibitor, single point]	
COc1ccc(-c2cn[nH]c2-c2ccc(OCC(=O)NN)cc2O)cc1OC	inconclusive: 20.8 µM [inhibitor, partial curve, poor fit]	
Cc1c(OCC(=O)Nc2cccnc2)ccc2c3c(c(=O)oc12)CCC3	inconclusive: 18.5 µM [inhibitor, single point]	
Cc1cc(C)cc(OCC(=O)Nc2ccc(S(=O)(=O)Nc3ccccn3)cc2)c1	active: 1.65 µM	
CC(=O)c1cccc(NC(=O)C(C)N2CCc3ccccc3C2)c1 (stereo not drawn)	inconclusive: 11.7 µM [inhibitor, single point]	
O=C(/C(=C/c1ccc(Cl)cc1)c1nc2ccccc2[nH]1)c1ccccc1	active: 2.33 µM	
COc1ccc(CCNC(=O)CCCCCN2C(=O)c3ccccc3C2=O)cc1OC	inconclusive: 20.8 µM [inhibitor, partial curve, poor fit]	
CC(C)(C)N(NC(=O)Nc1ccc(F)cc1)C(=O)c1ccccc1	inconclusive: 11.7 µM [inhibitor, partial curve]	
COc1ccc(NC(=O)CSc2nnc(NC(=O)CN3CCOCC3)s2)cc1	inconclusive: 6.57 µM [inhibitor, partial curve, poor fit]	
N#CC(C#N)=CN=c1ccn(Cc2ccc(Cl)cc2Cl)cc1	active: 1.17 µM	
COC(=O)CCSc1nc(N2CCOCC2)c2c(c1C#N)CC(C)(C)OC2	inconclusive: 4.65 µM [inhibitor, partial curve, poor fit]	
Cc1cc2cc(CN(Cc3cccs3)C(=S)NCc3ccco3)c(=O)[nH]c2cc1C	inconclusive: 9.28 µM [inhibitor, partial curve, poor fit]	
O=C(c1ccc(Cl)cc1)C1CCCN(Cc2ccc3c(c2)OCCO3)C1 (stereo not drawn)		inactive: 16.4%
COc1ccc(CCNC(=O)c2cccs2)cc1	inconclusive: 13.1 µM [inhibitor, single point]	
CCN1CCN(C(=O)c2cc3cc(F)ccc3[nH]2)CC1	inconclusive: 18.5 µM [inhibitor, single point]	

SMILES	Potency	activity change, negative = inhibition
Nn1c(SCC(=O)Nc2ccc3c(c2)OCO3)nncc1=O		inactive: -8.17%
O=C(CCC(=O)c1ccccc1)NCc1cccc(C(F)(F)F)c1		inactive: 10.8%
CCN1CCN(c2ccc(N3CCN(S(=O)(=O)c4cc([N+](=O)[O-])ccc4C)CC3)nn2)CC1	inconclusive: 1.17 µM [inhibitor, partial curve, poor fit]	
CCCn1c(=O)c(C(=O)NCc2ccccc2OC)c(O)c2ccccc21	inconclusive: 9.28 µM [inhibitor, partial curve, poor fit]	
CS(=O)(=O)Nc1ccc(C2=NN(C(=O)c3cccc(F)c3)C(c3cccs3)C2)cc1 (stereo not drawn)		inactive: 11.6%
COc1ccc2nc(NC(=O)c3ccccc3F)sc2c1	inconclusive: 2.62 µM [inhibitor, partial curve, poor fit]	
CN(CC1CCN(CCc2cccc(C(F)(F)F)c2)CC1)C(=O)c1ccccc1	inconclusive: 18.5 µM [inhibitor, single point]	
O=CN1CCN(C(C(=O)NC2CCCC2)c2ccc(Cl)cc2)CC1 (stereo not drawn)	inconclusive: 0.0033 µM [inhibitor, full curve, poor fit]	
O=C(O)c1ccccc1C(=O)OCCc1cc2ccccc2c(=O)o1		inactive: 48.1%
COc1ccc(-c2nc(C3CCCCC3)no2)cc1OC		inactive: -19.9%
O=C(Cn1nc(C(F)(F)F)c2c1CCC2)NC1CCCCC1	inconclusive: 1.31 µM [inhibitor, full curve]	
COC(=O)C1C2CC3c4[nH]c5cc(OC)ccc5c4CCN3CC2CC(OC)C1OC (stereo not drawn)	inconclusive: 9.53 µM [inhibitor, partial curve, poor fit]	
COc1ccc(NC(=O)CN2C(=O)CSC(C)C2=O)c(OC)c1 (stereo not drawn)		inactive: 51.9%
COc1ccc(N2CCN(C(=O)c3ccc(CSc4ccccc4)cc3)CC2)cc1	inconclusive: 2.33 µM [inhibitor, single point]	
O=C1CN(c2ccccc2)C(=O)N1		inactive: 5.59%
Cc1ccc(S(=O)(=O)NC2CCCC2)cc1C(N)=O	inconclusive: 18.5 µM [inhibitor, single point]	
Cc1ccc(C)c(-n2c(-c3ccc(Br)cc3)csc2=NC(=O)c2ccccc2F)c1	active: 0.233 µM	
CC(=O)N1CCCc2cc(S(=O)(=O)N(C)Cc3ccccc3)ccc21	inconclusive: 0.0037 µM [inhibitor, full curve, poor fit]	
COc1ccccc1CN(C(=O)CCl)C(C(=O)NC1CCCCC1)c1ccncc1 (stereo not drawn)	inconclusive: 9.28 µM [inhibitor, partial curve, poor fit]	
O=C(CCC(F)(F)F)N1CCCC(CO)(CCc2ccccc2)C1 (stereo not drawn)	inconclusive: 16.5 µM [inhibitor, partial curve, poor fit]	
COc1cccc(/C=C/C(=O)NNC(=O)c2cc(C)oc2C)c1		inactive: 11.1%
O=C(COc1ccc(/C=N/NS(=O)(=O)c2ccccc2)cc1)NCc1ccccc1	inconclusive: 0.131 µM [inhibitor, full curve, poor fit]	
O=C(O)c1ccc(CN2CCCCC2)o1	inconclusive: 0.147 µM [inhibitor, full curve, poor fit]	

SMILES	Potency	activity change, negative = inhibition
Cc1ccc(OCCC(=O)Nc2ccc3c(c2)OCO3)cc1		inactive: -16.2%
Cc1nnc2n(C3CCCCC3)c(=O)c3c4c(sc3n12)CCC4	active: 3.29 µM	
Cc1ccc(S(=O)(=O)NCC(C)NS(=O)(=O)c2ccccc2[N+](=O)[O-])cc1 (stereo not drawn)	inconclusive: 18.5 µM [inhibitor, single point]	
CS(=O)(=O)c1ccc(S(=O)CC(=O)OCc2ccccc2)c([N+](=O)[O-])c1 (stereo not drawn)	inconclusive: 13.1 µM [inhibitor, partial curve, poor fit]	
Cc1ccc(NC(=O)Cn2nc(C(=O)Nc3ccc(C)cc3)ccc2=O)cc1	active: 13.1 µM	
COc1cc([C@@H]2CC=C(C(=O)O)[C@H](c3ccccc3)N2S(=O)(=O)c2ccc(C)cc2)cc(OC)c1OC	active: 8.28 µM	
COc1ccc(N2CCN(C(=O)NC(=O)c3ccccc3)CC2)cc1	inconclusive: 18.5 µM [inhibitor, single point]	
CCOc1ccc(C(=O)N2CCn3c2nc2ccccc23)cc1		inactive: -20.5%
CC(C)OC(=O)c1ccc(NC(=O)c2ccccc2)cc1	inconclusive: 18.5 µM [inhibitor, single point]	
Cc1ccc2c(c1)c1c3n2CCN(C(=O)C2CC2)C3CCC1 (stereo not drawn)	inconclusive: 18.5 µM [inhibitor, single point]	
NC(=O)c1ccc(Oc2ccc3ccc(=O)oc3c2)c([N+](=O)[O-])c1		inactive: -0.253%
CC[C@H]1c2[nH]c3ccccc3c2C[C@@H]2C(=O)N(c3ccc(F)cc3)C(=O)N21	inconclusive: 9.28 µM [inhibitor, partial curve, poor fit]	
Oc1cc(Cc2ccccc2)cnc1CN1CCOCC1	inconclusive: 16.5 µM [inhibitor, single point]	
COc1ccc(C(CC(=O)N2CCN(c3ccccc3)CC2)c2c(OC)cc(OC)c3c(-c4ccccc4)cc(=O)oc23)cc1 (stereo not drawn)	inconclusive: 0.185 µM [inhibitor, full curve, poor fit]	
O=C(NNC(=S)Nc1ccccc1C(F)(F)F)c1cccnc1		inactive: -58.2% [at 5.75 µM]
O=C(Nc1ccc(Cl)cn1)C1CCN(c2ncnc3c2nc2n3CCCCC2)CC1	inconclusive: 9.28 µM [inhibitor, partial curve, poor fit]	
Cc1ccc(S(=O)(=O)N(C)C)cc1NC(=O)Cn1c(CN2CCOCC2)nc2ccccc2c1=O		inactive: -20%
Cc1c(C(=O)OCC(=O)Nc2ccc(C(=O)N(C)C)cc2)oc2ccccc12		inactive: 46.7%
Cc1ccc(N(C(=O)CNC(=O)c2ccco2)C(C(=O)NC2CCCCC2)c2ccncc2)c(C)c1 (stereo not drawn)		inactive: -5.93%
COc1cc(C)cc(OC)c1OCC(=O)Nc1cc(C)on1	inconclusive: 13.1 µM [inhibitor, single point]	
COc1ccc(C2CC(C(F)(F)F)n3nc(CO)c(Cl)c3N2)cc1OC (stereo not drawn)	active: 7.38 µM	
N#CC1=C(N)Oc2c(c(=O)oc3ccccc23)C1c1cccnc1 (stereo not drawn)	inconclusive: 4.65 µM [inhibitor, single point]	

Reformatted: entries from further up.

| SMILES | Potency | activity change, negative = inhibition |
| --- | --- | --- |
| Cc1nnc2n(C3CCCCC3)c(=O)c3c4c(sc3n12)CCC4 | active: 3.29 µM |  |
| Cc1ccc(S(=O)(=O)NCC(C)NS(=O)(=O)c2ccccc2[N+](=O)[O-])cc1 (stereo not drawn) | inconclusive: 18.5 µM [inhibitor, single point] |  |
| CS(=O)(=O)c1ccc(S(=O)CC(=O)OCc2ccccc2)c([N+](=O)[O-])c1 (stereo not drawn) | inconclusive: 13.1 µM [inhibitor, partial curve, poor fit] |  |
